Assay results from publication PMC8257755.
No constants are given. Whether binding was seen depends on the method and setting. Some binding calls cover weakened binding; strength is not graded here.

Chains of the proteins cited; added tags and fusions are not shown. Lines headed by an entry give the natural chain unless they say otherwise; changes in a name come on top. A line that says so, or that is headed by a name, gives the form on record, which may keep a tag or linker. Residues count along the entry.
UniProt Q8N2Q7, residues 46-863: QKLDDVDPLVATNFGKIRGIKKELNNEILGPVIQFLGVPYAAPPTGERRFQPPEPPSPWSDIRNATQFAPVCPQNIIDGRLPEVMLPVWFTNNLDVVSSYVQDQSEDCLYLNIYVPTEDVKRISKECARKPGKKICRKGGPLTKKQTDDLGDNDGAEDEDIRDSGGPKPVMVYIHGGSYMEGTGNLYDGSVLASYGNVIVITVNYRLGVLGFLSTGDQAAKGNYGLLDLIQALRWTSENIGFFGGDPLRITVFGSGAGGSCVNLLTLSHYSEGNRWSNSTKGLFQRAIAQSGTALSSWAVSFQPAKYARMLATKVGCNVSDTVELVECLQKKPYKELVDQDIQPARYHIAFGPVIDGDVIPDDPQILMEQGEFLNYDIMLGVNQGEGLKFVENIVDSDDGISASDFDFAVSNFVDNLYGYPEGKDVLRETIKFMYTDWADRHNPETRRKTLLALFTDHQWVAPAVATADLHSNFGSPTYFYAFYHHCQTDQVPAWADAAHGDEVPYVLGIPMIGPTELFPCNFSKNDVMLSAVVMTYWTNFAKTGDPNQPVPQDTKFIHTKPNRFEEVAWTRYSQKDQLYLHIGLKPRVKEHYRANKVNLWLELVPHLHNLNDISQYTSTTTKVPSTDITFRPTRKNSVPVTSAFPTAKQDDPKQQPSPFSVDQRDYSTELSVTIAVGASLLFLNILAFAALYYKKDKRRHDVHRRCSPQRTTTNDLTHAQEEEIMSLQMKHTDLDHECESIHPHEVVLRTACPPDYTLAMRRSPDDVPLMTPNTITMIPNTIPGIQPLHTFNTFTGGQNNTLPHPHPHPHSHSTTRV
ErbB4-K751M (Q15303, form named): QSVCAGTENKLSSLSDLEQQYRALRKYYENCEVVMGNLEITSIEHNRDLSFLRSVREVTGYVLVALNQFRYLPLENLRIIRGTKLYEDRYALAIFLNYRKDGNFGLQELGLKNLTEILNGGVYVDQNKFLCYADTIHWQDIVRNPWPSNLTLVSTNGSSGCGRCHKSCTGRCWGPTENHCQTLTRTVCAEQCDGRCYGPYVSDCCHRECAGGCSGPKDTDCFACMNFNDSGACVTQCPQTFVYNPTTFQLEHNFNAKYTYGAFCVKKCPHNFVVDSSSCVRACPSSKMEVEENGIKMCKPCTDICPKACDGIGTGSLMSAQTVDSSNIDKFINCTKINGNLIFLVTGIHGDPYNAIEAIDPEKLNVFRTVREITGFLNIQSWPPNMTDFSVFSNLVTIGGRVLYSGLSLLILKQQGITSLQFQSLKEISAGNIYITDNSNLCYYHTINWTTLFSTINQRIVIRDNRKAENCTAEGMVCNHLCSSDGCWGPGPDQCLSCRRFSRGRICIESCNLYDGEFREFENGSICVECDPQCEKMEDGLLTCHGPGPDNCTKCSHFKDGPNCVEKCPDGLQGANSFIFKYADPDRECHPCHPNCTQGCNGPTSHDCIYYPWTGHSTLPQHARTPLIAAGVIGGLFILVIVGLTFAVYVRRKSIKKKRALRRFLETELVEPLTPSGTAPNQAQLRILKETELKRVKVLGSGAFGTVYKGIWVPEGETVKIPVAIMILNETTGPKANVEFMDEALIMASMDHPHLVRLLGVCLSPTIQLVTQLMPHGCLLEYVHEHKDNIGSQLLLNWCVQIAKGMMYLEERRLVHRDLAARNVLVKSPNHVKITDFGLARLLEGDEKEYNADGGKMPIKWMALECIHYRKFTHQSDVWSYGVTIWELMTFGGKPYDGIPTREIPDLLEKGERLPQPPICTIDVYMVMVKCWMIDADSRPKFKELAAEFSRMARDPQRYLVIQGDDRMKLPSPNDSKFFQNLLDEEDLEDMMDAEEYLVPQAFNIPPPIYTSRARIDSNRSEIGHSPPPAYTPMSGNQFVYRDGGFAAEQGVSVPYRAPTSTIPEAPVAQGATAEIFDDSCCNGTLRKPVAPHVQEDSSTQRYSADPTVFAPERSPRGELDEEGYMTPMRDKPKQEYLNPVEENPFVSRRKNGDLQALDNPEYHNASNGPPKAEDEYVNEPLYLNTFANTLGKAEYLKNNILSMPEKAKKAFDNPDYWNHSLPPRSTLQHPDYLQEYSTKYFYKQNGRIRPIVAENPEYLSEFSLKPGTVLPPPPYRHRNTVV
UniProt P58400, residues 51-472: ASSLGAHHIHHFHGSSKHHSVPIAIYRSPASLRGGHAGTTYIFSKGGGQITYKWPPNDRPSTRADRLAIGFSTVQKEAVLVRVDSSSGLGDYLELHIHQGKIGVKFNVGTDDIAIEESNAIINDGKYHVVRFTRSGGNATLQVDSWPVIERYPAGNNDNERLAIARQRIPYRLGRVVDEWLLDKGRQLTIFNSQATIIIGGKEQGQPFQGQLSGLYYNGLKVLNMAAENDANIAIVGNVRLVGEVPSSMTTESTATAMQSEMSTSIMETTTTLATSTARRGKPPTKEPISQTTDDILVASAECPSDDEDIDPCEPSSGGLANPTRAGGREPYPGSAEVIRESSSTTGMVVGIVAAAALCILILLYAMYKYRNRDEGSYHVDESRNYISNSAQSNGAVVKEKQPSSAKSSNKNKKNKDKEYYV

Legend:
Slitrk3 = target: T1, Slitrk3 (UniProt O94933); assay: cell aggregation assay; HEK293T cells transfected separately (DsRed with one protein, EGFP with the other), detached with 1 mM EDTA in PBS, mixed, gentle agitation at room temperature in DMEM with 10% FBS, 50 mM HEPES-NaOH pH 7.4, 10 mM MgCl2, 10 mM CaCl2; aggregation assessed at 90 min
T1 sequence: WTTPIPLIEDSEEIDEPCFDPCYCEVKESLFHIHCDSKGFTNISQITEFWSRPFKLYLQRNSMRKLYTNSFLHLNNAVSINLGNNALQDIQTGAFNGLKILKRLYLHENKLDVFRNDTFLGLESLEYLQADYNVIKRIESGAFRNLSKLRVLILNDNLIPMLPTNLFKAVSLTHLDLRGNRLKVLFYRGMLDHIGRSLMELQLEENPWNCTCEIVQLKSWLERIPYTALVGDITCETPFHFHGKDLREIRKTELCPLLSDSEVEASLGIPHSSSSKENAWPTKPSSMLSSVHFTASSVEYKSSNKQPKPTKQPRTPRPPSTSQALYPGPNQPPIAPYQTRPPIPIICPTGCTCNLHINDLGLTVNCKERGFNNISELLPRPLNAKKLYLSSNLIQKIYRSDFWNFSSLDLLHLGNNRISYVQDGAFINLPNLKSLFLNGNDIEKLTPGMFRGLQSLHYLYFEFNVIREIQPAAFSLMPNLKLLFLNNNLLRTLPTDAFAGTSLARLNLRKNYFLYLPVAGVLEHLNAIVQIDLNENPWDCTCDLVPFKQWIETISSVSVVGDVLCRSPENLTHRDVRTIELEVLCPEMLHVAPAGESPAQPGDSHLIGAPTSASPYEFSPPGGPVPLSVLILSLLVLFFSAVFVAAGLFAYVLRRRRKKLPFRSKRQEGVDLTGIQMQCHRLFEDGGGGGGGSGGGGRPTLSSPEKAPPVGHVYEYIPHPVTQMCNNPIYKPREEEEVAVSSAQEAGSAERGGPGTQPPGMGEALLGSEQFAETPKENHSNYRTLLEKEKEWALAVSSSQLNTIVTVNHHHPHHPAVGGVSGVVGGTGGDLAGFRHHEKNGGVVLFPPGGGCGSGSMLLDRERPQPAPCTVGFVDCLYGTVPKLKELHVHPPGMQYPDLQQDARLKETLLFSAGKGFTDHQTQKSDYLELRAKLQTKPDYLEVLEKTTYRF

NLGN1 = NLGN1 (UniProt Q8N2Q7); assay: as above

| Substance | binding (Slitrk3) | binding (NLGN1) |
| --- | --- | --- |
| ErbB4-K751M (from UniProt Q15303 26-1308) (receptor) | binds |  |
| NRXN1β (from UniProt P58400 51-472) |  | binds |
